# Test results from publication PMC4543939.
# Amino acid sequences for entries named in this document (tags omitted).
# UniProt O46674: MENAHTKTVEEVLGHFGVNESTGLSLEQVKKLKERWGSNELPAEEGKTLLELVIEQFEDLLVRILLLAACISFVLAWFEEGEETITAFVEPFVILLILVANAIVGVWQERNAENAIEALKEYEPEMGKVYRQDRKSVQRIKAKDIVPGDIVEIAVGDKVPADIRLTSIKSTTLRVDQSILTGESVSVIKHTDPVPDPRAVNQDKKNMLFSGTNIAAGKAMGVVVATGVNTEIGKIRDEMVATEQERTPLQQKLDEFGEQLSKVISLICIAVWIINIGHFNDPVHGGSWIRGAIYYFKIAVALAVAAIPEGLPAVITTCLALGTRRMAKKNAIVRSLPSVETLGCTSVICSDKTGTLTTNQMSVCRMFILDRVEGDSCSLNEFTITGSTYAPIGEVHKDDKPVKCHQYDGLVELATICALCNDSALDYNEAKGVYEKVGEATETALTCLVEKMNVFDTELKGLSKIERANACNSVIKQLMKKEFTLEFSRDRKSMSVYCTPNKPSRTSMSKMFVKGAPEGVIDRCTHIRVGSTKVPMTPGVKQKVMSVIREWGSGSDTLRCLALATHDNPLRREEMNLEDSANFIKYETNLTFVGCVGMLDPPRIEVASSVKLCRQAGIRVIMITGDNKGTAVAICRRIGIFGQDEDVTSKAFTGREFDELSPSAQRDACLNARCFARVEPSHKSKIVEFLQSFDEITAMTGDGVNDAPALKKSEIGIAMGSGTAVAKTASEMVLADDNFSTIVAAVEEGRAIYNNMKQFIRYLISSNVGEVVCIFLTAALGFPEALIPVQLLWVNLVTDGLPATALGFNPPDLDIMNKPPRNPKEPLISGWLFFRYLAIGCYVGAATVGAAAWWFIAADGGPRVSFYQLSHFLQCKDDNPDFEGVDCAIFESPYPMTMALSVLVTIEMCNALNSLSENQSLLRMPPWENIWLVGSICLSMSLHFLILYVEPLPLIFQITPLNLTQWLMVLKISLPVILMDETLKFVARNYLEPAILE
# Results are given in words; binding and its absence hold for the method and conditions named. In cells and extracts the contact can be indirect. Some results given as binding are weak or reduced against the parent protein; the word gives no strength. Where a sequence is shown, tags or fusion partners need not be part of it.
# B1: YFP-PLN-WT: canine phospholamban fused at its N-terminus with enhanced yellow fluorescent protein (protein, UniProt P61012 1-52)
# chain: MDKVQYLTRSAIRRASTIEMPQQARQNLQNLFINFCLILICLLLICIIVMLL
# Target: Cer-SERCA: canine SERCA2a fused at its N-terminus with mCerulean (canine) (UniProt O46674)
# Test: FRET or BRET; in-cell binding assay, acceptor sensitization FRET in living AAV-293 cells co-transfected with Cer-SERCA and YFP-PLN-WT (1:20); FRET against relative protein concentration cell by cell, hyperbolic fit; apparent KD2 of the PLN-SERCA complex; with or without 1 uM 50-mer ssDNA
binder,measurement,value
B1,binding,binds
